Entries after “also recorded” stand apart in the source; their conditions may differ. At least one compound was matched to its structure with a doubt left.
System: iPSC-derived cholangiocytes
Test: Cyst formation in 3D gel culture of iPSC-derived cholangiocytes
Format: cell-based, human
Conditions: CF patient iPSC-derived cholangiocytes; first week of two-week culture
Source text: After embedding in collagen/Matrigel culture, cyst formation was induced from the aggregates by the addition of forskolin for the first week of the two-week culture period (left). Without forskolin stimulation, the CF-iPSCs derived cholangiocytes formed branched ductal structure rather than hollow cysts (right).
CF-iPSCs derived cholangiocytes were maintained in the 3D gel conditions in the presence or absence of forskolin for the first week of the two weeks culture period (left graph). Normal iPS cells-derived cholangiocytes were maintained in the presence or absence of CFTR inhibitor for the first week of the two-week culture periods (right graph). […] Addition of the CFTR inhibitor to normal iPSC-derived cholangiocytes delayed cyst formation (right graph).
Both hiPSC lines generated hepatoblast populations with kinetics similar to those observed for wild type hPSCs (FIG. 24a, b). […] However, many of the cysts that developed from the patient iPSC we not completely hollow, but rather contained branched ductal structures (FIG. 19c).

In the case of `C=C[C@@]1(C)CC(=O)[C@]2(O)[C@@]3(C)[C@@H](O)CCC(C)(C)[C@@H]3[C@H](O)[C@H](OC(C)=O)[C@@]2(C)O1` [forskolin], the cyst formation is reported as “increased the number of cyst structures; also recorded: could be induced”.
